Laboratory results reported in the supplement of paper PMC3682954.
Values joined by “and” are separate entries in the source; they are usually repeats but may differ in a detail not shown here. Equal values may be shown once. Where a name gives a salt, the structure may show the parent alone. ± gives the standard deviation of the averaged measurements. Some of the results follow. Many values rest on one well or one pass, so single values are uncertain.

Test system: RAW 264.7
Assay: cell viability (MTT) relative to vehicle control; higher = more viable cells
Settings: stimulus: HMGB1 5 ug/ml, 18 h
[1] = compound concentration: 1 ug/ml

| Structure (SMILES) | cell viability (compound concentration: 3 uM) | cell viability [1] [%] |
| --- | --- | --- |
| CC(=O)NS(=O)(=O)c1ccc(NC(=O)c2ccccc2C(=O)O)cc1 | 112% |  |
| CNC[C@H](O)c1ccc(O)c(O)c1 | 104% |  |
| CNC[C@H](O)c1ccc(O)c(O)c1 [(-)-Epinephrine bitartrate] | 100% |  |
| CN(C)CCN1C(=O)c2ccccc2N(C)c2ccccc21 [Dibenzepine hydrochloride] | 125% |  |
| COc1ccc(OC)c(C(O)CNC(=O)CN)c1 (stereo not drawn) | 100% |  |
| COc1ccc(OC)c(C(O)CNC(=O)CN)c1 (stereo not drawn) [Midodrine hydrochloride] | 103% |  |
| CN1CCN(CCCN2c3ccccc3Sc3ccc(C(F)(F)F)cc32)CC1 [Trifluoperazine 2HCl] | 113% |  |
| CN1CCN(CCCN2c3ccccc3Sc3ccc(C(F)(F)F)cc32)CC1 | 101% and 97.5% |  |
| CN1CCN(CCCN2c3ccccc3Sc3ccc(C(F)(F)F)cc32)CC1 [Trifluoperazine dihydrochloride] | 111.1 ± 1.1% |  |
| Nc1ccn([C@H]2CC[C@@H](CO)O2)c(=O)n1 [2',3' - Dideoxycytidine] | 95.9% |  |
| Nc1ccn([C@H]2CC[C@@H](CO)O2)c(=O)n1 | 97.1% |  |
| Nc1ccn([C@H]2CC[C@@H](CO)O2)c(=O)n1 [Zalcitabine] | 89% |  |
| Nc1ccn([C@H]2CC[C@@H](CO)O2)c(=O)n1 [2',3'-dideoxycytidine] | 108% |  |
| Nc1ccn([C@H]2CC[C@@H](CO)O2)c(=O)n1 [2',3'-Dideoxycytidine] |  | 104 |
| CN(C(=O)C(Cl)Cl)c1ccc(OC(=O)c2ccco2)cc1 [Diloxanide furoate] | 110% |  |
| CN(C(=O)C(Cl)Cl)c1ccc(OC(=O)c2ccco2)cc1 | 105 ± 1.3% |  |
| CC(C)(C#N)c1cc(Cn2cncn2)cc(C(C)(C)C#N)c1 | 93.8% |  |
| CC(C)(C#N)c1cc(Cn2cncn2)cc(C(C)(C)C#N)c1 [Anastrozole] | 104 ± 4.2% |  |
| Oc1c(I)cc(Cl)c2cccnc12 | 101% |  |
| Oc1c(I)cc(Cl)c2cccnc12 [Clioquinol] | 91.6% |  |
| CN(C)CCOC(C)(c1ccccc1)c1ccccn1 (stereo not drawn) | 99.3 ± 2.2% |  |

| Structure (SMILES) | cell viability (compound concentration: 3 uM) | cell viability [1] [%] |
| --- | --- | --- |
| CN(C)CCOC(C)(c1ccccc1)c1ccccn1 (stereo not drawn) [Doxylamine succinate] | 104 ± 10% |  |
| CC(=O)c1ccc2c(c1)N(CCCN(C)C)c1ccccc1S2 | 104% |  |
| CC(=O)c1ccc2c(c1)N(CCCN(C)C)c1ccccc1S2 [Acetopromazine maleate salt] | 114% |  |
| COc1cccc(-c2cc(=O)c3ccccc3o2)c1N | 99.1% |  |
| CCCCCCCCCCCCCCC[C@H](O)[C@H](N)CO (racemic) [DL-erythro-Dihydrosphingosine] | 91.9% |  |
| CC(=O)[C@H]1CC[C@H]2[C@@H]3C=CC4=CC(=O)CC[C@@]4(C)[C@@H]3CC[C@]12C [Dydrogesterone] | 116% |  |
| Cc1cc(=O)[nH]c(=S)[nH]1 | 109% |  |
| Cc1cc(O)cc(O)c1 [Orcinol] |  | 91.3 |
| COc1ccc2c(CN(C)CCC#N)cc(=O)oc2c1 |  | 122 |
| COc1ccccc1OCC(O)CO (stereo not drawn) [Guaifenesin] | 118 ± 23% |  |
| COc1ccccc1OCC(O)CO (stereo not drawn) | 105% |  |
| CC[C@]1(O)C[C@H]2CN(CCc3c([nH]c4ccccc34)[C@@](C(=O)OC)(c3cc4c(cc3OC)N(C=O)[C@H]3[C@@](O)(C(=O)OC)[C@H](OC(C)=O)[C@]5(CC)C=CCN6CC[C@]43[C@@H]65)C2)C1 [Vincristine sulfate] | 95.7% |  |
| CC[C@]1(O)C[C@H]2CN(CCc3c([nH]c4ccccc34)[C@@](C(=O)OC)(c3cc4c(cc3OC)N(C=O)[C@H]3[C@@](O)(C(=O)OC)[C@H](OC(C)=O)[C@]5(CC)C=CCN6CC[C@]43[C@@H]65)C2)C1 [Vincristine] | 93.8% |  |
| CC[C@]1(O)C[C@H]2CN(CCc3c([nH]c4ccccc34)[C@@](C(=O)OC)(c3cc4c(cc3OC)N(C=O)[C@H]3[C@@](O)(C(=O)OC)[C@H](OC(C)=O)[C@]5(CC)C=CCN6CC[C@]43[C@@H]65)C2)C1 | 82.1 ± 8.7% |  |
| NC[C@@H]1O[C@H](O[C@H]2[C@@H](O)[C@H](O[C@@H]3[C@@H](O)[C@H](N)C[C@H](N)[C@H]3O[C@H]3O[C@H](CO)[C@@H](O)[C@H](O)[C@H]3N)O[C@@H]2CO)[C@H](N)[C@@H](O)[C@@H]1O [Paromomycin sulfate] | 97.5 ± 11% |  |
| NC[C@@H]1O[C@H](O[C@H]2[C@@H](O)[C@H](O[C@@H]3[C@@H](O)[C@H](N)C[C@H](N)[C@H]3O[C@H]3O[C@H](CO)[C@@H](O)[C@H](O)[C@H]3N)O[C@@H]2CO)[C@H](N)[C@@H](O)[C@@H]1O | 110% |  |
| Cc1cccc(C)c1OCC(C)N (stereo not drawn) [Mexiletene hydrochloride] | 104% |  |
| Cc1cccc(C)c1OCC(C)N (stereo not drawn) [Mexiletine hydrochloride] | 96.2% |  |
| Cc1cccc(C)c1OCC(C)N (stereo not drawn) | 102% |  |
| COc1ccccc1N1CCN(CCCCN2C(=O)c3ccccc3C2=O)CC1 [NAN-190 hydrobromide] | 111% |  |
| CN1[C@@H]2CC[C@H]1C[C@@H](OC(=O)c1c[nH]c3ccccc13)C2 | 98.8% |  |

| Structure (SMILES) | cell viability (compound concentration: 3 uM) | cell viability [1] [%] |
| --- | --- | --- |
| CN1[C@@H]2CC[C@H]1C[C@@H](OC(=O)c1c[nH]c3ccccc13)C2 [Tropisetron HCl] | 125% |  |
| CN1[C@@H]2CC[C@H]1C[C@@H](OC(=O)c1c[nH]c3ccccc13)C2 [Tropisetron] | 101% |  |
| Oc1ccc(/C=C/c2cc(O)cc(O)c2)cc1 | 98.8% |  |
| Oc1ccc(/C=C/c2cc(O)cc(O)c2)cc1 [Resveratrol] | 104 ± 25% |  |
| CCOC(=O)C1=C(COCCN)NC(C)=C(C(=O)OC)C1c1ccccc1Cl (stereo not drawn) | 102% and 94.6% |  |
| CCOC(=O)C1=C(COCCN)NC(C)=C(C(=O)OC)C1c1ccccc1Cl (stereo not drawn) [Amlodipine] | 107 ± 17% |  |
| CO[C@H]1O[C@@H]2COC(c3ccccc3)O[C@H]2[C@H](O)[C@H]1O (single isomer, unassigned; (+)) [(+)-(4,6-O-Benzylidene)methyl-alpha-D-glucopyranoside] |  | 99.9 |
| COc1ccc(/C=C/C(=O)Nc2ccccc2C(=O)O)cc1OC | 96.9 ± 9.3% |  |
| COc1ccc(/C=C/C(=O)Nc2ccccc2C(=O)O)cc1OC [Tranilast] | 108 ± 11% |  |
| NC(=O)c1ccc2[nH]ccc2c1 | 91% |  |
| CCCc1c(-c2ccc(O)cc2)nn(-c2ccc(O)cc2)c1-c1ccc(O)cc1 [1,3,5-tris(4-hydroxyphenyl)-4-propyl-1H-pyrazole] | 84.5% |  |
| Cc1c(N(C)C)c(=O)n(-c2ccccc2)n1C | 109% |  |
| Cc1c(N(C)C)c(=O)n(-c2ccccc2)n1C [Amidopyrine] | 98.8% |  |
| Oc1c(Cl)cc(Cl)c(Cl)c1Cc1c(O)c(Cl)cc(Cl)c1Cl | 77.2 ± 32% |  |
| Oc1c(Cl)cc(Cl)c(Cl)c1Cc1c(O)c(Cl)cc(Cl)c1Cl [Hexachlorophene] | 136% |  |
| NC(=S)NCCC[C@H](N)C(=O)O [L-Thiocitrulline] |  | 102 |
| O=C1c2c(O)cccc2C([C@@H]2O[C@H](CO)[C@@H](O)[C@H](O)[C@H]2O)c2cc(CO)cc(O)c21 (stereo partly drawn) | 106% |  |
| C=CCc1cccc(/C=N/NC(=O)CN2CCN(Cc3ccccc3)CC2)c1O | 117% |  |
| Cc1cccc(C)c1NC(=O)C(C)N (stereo not drawn) | 93.9% |  |
| Cc1cccc(C)c1NC(=O)C(C)N (stereo not drawn) [Tocainide hydrochloride] | 103 ± 13% |  |
| CCCCc1cc2ccccc2c(OCCN(C)C)n1 [Dimethisoquin hydrochloride] | 121% |  |

| Structure (SMILES) | cell viability (compound concentration: 3 uM) | cell viability [1] [%] |
| --- | --- | --- |
| CC(C(=O)O)c1ccc2c(c1)[nH]c1ccc(Cl)cc12 (stereo not drawn) | 109% |  |
| CC(C(=O)O)c1ccc2c(c1)[nH]c1ccc(Cl)cc12 (stereo not drawn) [Carprofen] | 94.9% |  |
| CN(C)C(=O)C(CCN1CCC(O)(c2ccc(Cl)cc2)CC1)(c1ccccc1)c1ccccc1 [Loperamide hydrochloride] | 97.9 ± 7.4% |  |
| CN(C)C(=O)C(CCN1CCC(O)(c2ccc(Cl)cc2)CC1)(c1ccccc1)c1ccccc1 [Loperamide] | 109% |  |
| CN(C)C(=O)C(CCN1CCC(O)(c2ccc(Cl)cc2)CC1)(c1ccccc1)c1ccccc1 | 102% |  |
| COc1cc(C[C@@H](CO)[C@H](CO)Cc2ccc(O)c(OC)c2)ccc1O | 98.2% |  |
| C/C1=C2/[N-][C@H]([C@H](CC(N)=O)[C@@]2(C)CCC(=O)NC[C@@H](C)OP(=O)([O-])O[C@H]2[C@@H](O)[C@@H](n3cnc4cc(C)c(C)cc43)O[C@@H]2CO)[C@]2(C)N=C(/C(C)=C3N=C(/C=C4N=C1[C@@H](CCC(N)=O)C\4(C)C)[C@@H](CCC(N)=O)[C@]\3(C)CC(N)=O)[C@@H](CCC(N)=O)[C@]2(C)CC(N)=O.[CH2-][C@H]1O[C@H](n2cnc3c(N)ncnc32)[C@@H](O)[C@H]1O.[Co+3] | 104% |  |
| Nc1nc2[nH]cnc2c(=S)[nH]1 | 99.1 ± 5.7% |  |
| CC[N+](CC)(CC)CCOc1ccc(/C=C/c2ccccc2)cc1 | 116% |  |
| Cc1cc(O)c2c(c1)C(=O)c1cccc(O)c1C2=O [Chrysophanic acid] |  | 93.9 |
| NC(=O)c1cn(Cc2c(F)cccc2F)nn1 [Rufinamide] | 104% |  |
| CC(C(=O)O)c1ccc(-c2ccccc2)c(F)c1 (stereo not drawn) | 110% and 93.8% |  |
| CC(C(=O)O)c1ccc(-c2ccccc2)c(F)c1 (stereo not drawn) [Flurbiprofen] | 104 ± 11% |  |
| O=C(OCC(O)CO)c1ccccc1Nc1ccnc2cc(Cl)ccc12 (stereo not drawn) [Glafenine hydrochloride] | 108% |  |
| O=C(OCC(O)CO)c1ccccc1Nc1ccnc2cc(Cl)ccc12 (stereo not drawn) | 110% |  |
| O=c1c(O)c(-c2cccc(O)c2)oc2ccccc12 |  | 83 |
| C[C@H](CCC(=O)O)[C@H]1CC[C@H]2[C@@H]3[C@H](O)C[C@@H]4C[C@H](O)CC[C@]4(C)[C@H]3C[C@H](O)[C@]12C [Cholic acid] |  | 98 |
| O=c1ccc2cc(O)c(O)cc2o1 [Esculetin] |  | 112 |
| COc1cc([S+](C)[O-])ccc1-c1nc2cccnc2[nH]1 (stereo not drawn) [Sulmazole] | 104% |  |
| COc1cc([S+](C)[O-])ccc1-c1nc2cccnc2[nH]1 (stereo not drawn) | 111% |  |

23 entries from above, in CSV form.
Structure (SMILES),cell viability (compound concentration: 3 uM),cell viability [1] [%]
C=CCc1cccc(/C=N/NC(=O)CN2CCN(Cc3ccccc3)CC2)c1O,117%,
Cc1cccc(C)c1NC(=O)C(C)N (stereo not drawn),93.9%,
Cc1cccc(C)c1NC(=O)C(C)N (stereo not drawn) [Tocainide hydrochloride],103 ± 13%,
CCCCc1cc2ccccc2c(OCCN(C)C)n1 [Dimethisoquin hydrochloride],121%,
CC(C(=O)O)c1ccc2c(c1)[nH]c1ccc(Cl)cc12 (stereo not drawn),109%,
CC(C(=O)O)c1ccc2c(c1)[nH]c1ccc(Cl)cc12 (stereo not drawn) [Carprofen],94.9%,
CN(C)C(=O)C(CCN1CCC(O)(c2ccc(Cl)cc2)CC1)(c1ccccc1)c1ccccc1 [Loperamide hydrochloride],97.9 ± 7.4%,
CN(C)C(=O)C(CCN1CCC(O)(c2ccc(Cl)cc2)CC1)(c1ccccc1)c1ccccc1 [Loperamide],109%,
CN(C)C(=O)C(CCN1CCC(O)(c2ccc(Cl)cc2)CC1)(c1ccccc1)c1ccccc1,102%,
COc1cc(C[C@@H](CO)[C@H](CO)Cc2ccc(O)c(OC)c2)ccc1O,98.2%,
C/C1=C2/[N-][C@H]([C@H](CC(N)=O)[C@@]2(C)CCC(=O)NC[C@@H](C)OP(=O)([O-])O[C@H]2[C@@H](O)[C@@H](n3cnc4cc(C)c(C)cc43)O[C@@H]2CO)[C@]2(C)N=C(/C(C)=C3N=C(/C=C4N=C1[C@@H](CCC(N)=O)C\4(C)C)[C@@H](CCC(N)=O)[C@]\3(C)CC(N)=O)[C@@H](CCC(N)=O)[C@]2(C)CC(N)=O.[CH2-][C@H]1O[C@H](n2cnc3c(N)ncnc32)[C@@H](O)[C@H]1O.[Co+3],104%,
Nc1nc2[nH]cnc2c(=S)[nH]1,99.1 ± 5.7%,
CC[N+](CC)(CC)CCOc1ccc(/C=C/c2ccccc2)cc1,116%,
Cc1cc(O)c2c(c1)C(=O)c1cccc(O)c1C2=O [Chrysophanic acid],,93.9
NC(=O)c1cn(Cc2c(F)cccc2F)nn1 [Rufinamide],104%,
CC(C(=O)O)c1ccc(-c2ccccc2)c(F)c1 (stereo not drawn),110% and 93.8%,
CC(C(=O)O)c1ccc(-c2ccccc2)c(F)c1 (stereo not drawn) [Flurbiprofen],104 ± 11%,
O=C(OCC(O)CO)c1ccccc1Nc1ccnc2cc(Cl)ccc12 (stereo not drawn) [Glafenine hydrochloride],108%,
O=C(OCC(O)CO)c1ccccc1Nc1ccnc2cc(Cl)ccc12 (stereo not drawn),110%,
O=c1c(O)c(-c2cccc(O)c2)oc2ccccc12,,83
C[C@H](CCC(=O)O)[C@H]1CC[C@H]2[C@@H]3[C@H](O)C[C@@H]4C[C@H](O)CC[C@]4(C)[C@H]3C[C@H](O)[C@]12C [Cholic acid],,98
O=c1ccc2cc(O)c(O)cc2o1 [Esculetin],,112
COc1cc([S+](C)[O-])ccc1-c1nc2cccnc2[nH]1 (stereo not drawn) [Sulmazole],104%,
